# Assay results

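Genome-wide siRNA knockdown in TC32 Ewing sarcoma cells, comparing luciferase light from an NR0B1-promoter reporter with a CMV-promoter reporter 48 hours after transfection.
Each siRNA was applied at 20 nM.
A z-score of the log NR0B1-over-CMV signal, less the median of siRNAs with the same seed; more negative means a stronger specific loss of the NR0B1 reporter.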

The strongest results of the screen are mostly left out here.
Sequences are the guide (antisense) strand, without overhang.

UGAGGGCAUAGAAAUCUCU against NRBP2 gave seed-corrected z-score -0.5546.
UUUACUUAAAUGAAGUUGA against TRIM53BP gave seed-corrected z-score 1.341.
UUACCAUACAGGUCAGAUC against LRRCC1 gave seed-corrected z-score -0.08918.
UCAUUGUAACCUGGUAACC against OTC gave seed-corrected z-score -0.003215.
UGUCAAACAAAACUAUUCG against ZMPSTE24 gave seed-corrected z-score -0.08011.
UUCGAUCUAAGUCUAUUCC against RAD50 gave seed-corrected z-score 0.5145.
UAGCCUGCAUGGUAGUUCC against ATP6V0B gave seed-corrected z-score 0.1958.
AUAGCAGAGACAUCGAUGG against ABCA1 gave seed-corrected z-score 0.2728.
UUCUUCCAUGGAGCACAGG against RETN gave seed-corrected z-score -0.1931.
UCAGUUACAGUGCUGUUUC against TAS2R16 gave seed-corrected z-score 1.291.
AGAUGUACCAGCAUAUCUU against RAD51C gave seed-corrected z-score -0.6798.
UAAGAAAUCAGCUCCAAUU against GOT1 gave seed-corrected z-score 0.3932.
UAUAUCUCCAGAUCAGUUG against IFT74 gave seed-corrected z-score -0.7434.
UAAUCGAAUUGUACAGCUG against DAPP1 gave seed-corrected z-score -1.109.
UGUAGUACAGUCAACAGCC against KCTD3 gave seed-corrected z-score 0.3356.
AUUCGCUCAACAACAGCUG against CASP2 gave seed-corrected z-score 0.1314.
UAACUAACACCGUUCUUCC against ABCB10 gave seed-corrected z-score -0.4432.
AUACAGAUCCAUGAUCUUC against IL36G gave seed-corrected z-score 0.2381.
AUAGUCGUCAUUUUCAGCC against ZDHHC7 gave seed-corrected z-score 0.3689.
UCAGCAAGCUCUUCCAUGG against FMO5 gave seed-corrected z-score -0.2935.
UUUGAUAACGUGGUGUCAG against POM121L12 gave seed-corrected z-score 0.2792.
UUCGUGGGAAAUCAGGUCU against FAM231D gave seed-corrected z-score -1.383.
UGUAUAGUUGCCGUUGUGC against DSCAML1 gave seed-corrected z-score 0.2533.
UAAAUAUCAAGGUCCAACU against TNFSF9 gave seed-corrected z-score 0.2226.
AUAGAUCUAUGCUGGGUCG against WFDC10B gave seed-corrected z-score -0.7511.
UCCGGGACUUCCAUCUGUC against FAM226B gave seed-corrected z-score -0.9336.
UUUUAUGGAAGUUGCUUCC against QTRTD1 gave seed-corrected z-score 0.4946.
ACUCGGAUCUUAGAGAGCU against RPL35P1 gave seed-corrected z-score -1.022.
UCAUUUGUGGAAGACAGCC against RIPPLY1 gave seed-corrected z-score -0.6215.
ACACGGGACAUCAUCAUCG against ENTHD2 gave seed-corrected z-score 0.3915.
UAGCCGACUGUUCCAACUC against GRK4 gave seed-corrected z-score -0.01189.
UCUGGAUUAAACCUGCACG against C5orf47 gave seed-corrected z-score 0.9557.
UCAUCAUCAGCAGAUAUGC against NELFE gave seed-corrected z-score -0.4835.
UAUAGCCUCAGGGUACUCC against RELA gave seed-corrected z-score 0.1516.
UAACCUCUUGUUUAGGCAG against UBA5 gave seed-corrected z-score 0.6147.
UUUGAUACAAGAUUCCCGC against ASPM gave seed-corrected z-score -0.1513.
AUAAGUUCACAUAUUAGUG against MOK gave seed-corrected z-score 0.2355.
UUUCCGUUUGGAGCCUUCC against PBRM1 gave seed-corrected z-score -1.217.
AAACAGGUCUUUGCAGUUC against SSU72 gave seed-corrected z-score -0.4555.
UAAUAGAUGAAAAGAUACG against HACD4 gave seed-corrected z-score -0.1707.
UACAUGGAAGGAUCGGAGC against HIRA gave seed-corrected z-score -0.1145.
UCUCUGAUUAGCACAAGCC against AK5 gave seed-corrected z-score -0.147.
UUAACUGAGAAACUAAUGC against MLH1 gave seed-corrected z-score 0.2921.
AAAAGGGCAGUGUCACAGG against DLGAP1-AS1 gave seed-corrected z-score -1.061.

Repeated from the top, 5 entries:

Sequence	target gene	seed-corrected z-score
UGAGGGCAUAGAAAUCUCU	NRBP2	-0.5546
UUUACUUAAAUGAAGUUGA	TRIM53BP	1.341
UUACCAUACAGGUCAGAUC	LRRCC1	-0.08918
UCAUUGUAACCUGGUAACC	OTC	-0.003215
UGUCAAACAAAACUAUUCG	ZMPSTE24	-0.08011

Data taken from PubChem BioAssay AID1159506, deposited by NCATS (2015).